Data published in paper PMC13489962, “Small-molecule modulation of β-arrestins” (Nature, 2026).
No constants are given. Whether binding was seen depends on the method and setting. For some assays here: Binding seen in cells or lysates may run through a third protein. Some binding calls cover weakened binding; strength is not graded here.

By UniProt entry, the sequences of proteins in these tests, tags left out.
UniProt P29066: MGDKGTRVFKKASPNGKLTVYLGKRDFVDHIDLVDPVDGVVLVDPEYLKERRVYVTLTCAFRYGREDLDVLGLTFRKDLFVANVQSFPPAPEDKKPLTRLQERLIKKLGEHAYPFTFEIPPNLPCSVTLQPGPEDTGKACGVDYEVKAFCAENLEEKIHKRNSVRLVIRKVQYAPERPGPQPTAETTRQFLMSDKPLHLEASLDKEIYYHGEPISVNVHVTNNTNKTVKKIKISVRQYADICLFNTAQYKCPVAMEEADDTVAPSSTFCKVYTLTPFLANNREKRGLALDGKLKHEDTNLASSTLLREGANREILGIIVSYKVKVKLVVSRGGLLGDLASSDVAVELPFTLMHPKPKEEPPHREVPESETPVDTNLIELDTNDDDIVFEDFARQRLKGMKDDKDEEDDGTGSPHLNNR
UniProt P53779: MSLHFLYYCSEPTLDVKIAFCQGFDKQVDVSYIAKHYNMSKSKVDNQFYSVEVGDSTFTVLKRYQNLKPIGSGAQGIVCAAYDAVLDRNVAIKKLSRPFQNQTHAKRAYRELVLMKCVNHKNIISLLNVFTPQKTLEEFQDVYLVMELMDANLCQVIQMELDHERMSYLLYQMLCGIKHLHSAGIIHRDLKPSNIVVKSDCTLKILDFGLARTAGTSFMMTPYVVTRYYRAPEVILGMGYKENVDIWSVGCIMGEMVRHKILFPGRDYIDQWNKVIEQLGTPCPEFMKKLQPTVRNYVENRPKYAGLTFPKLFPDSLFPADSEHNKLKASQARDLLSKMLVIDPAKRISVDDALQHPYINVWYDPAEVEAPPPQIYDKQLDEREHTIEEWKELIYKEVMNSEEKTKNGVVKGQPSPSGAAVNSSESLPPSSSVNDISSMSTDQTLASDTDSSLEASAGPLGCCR

Columns and labels:
[1] = molecular target: angiotensin receptor (AT1R) in CHO-K1 PathHunter cells (UniProt P30556); experiment: split reporter; PathHunter assay in CHO-K1 cells; modulators (50 μM, 30 min) or DMSO before ANGII (1 μM, 1 h)
βARR1–Flag = βARR1–Flag (UniProt P29066); experiment: pull-down; βARR1–Flag (5 μM) as bait, with or without 30 min pre-incubation with 20-fold molar excess of Cmpd-5, Cmpd-46 or Cmpd-64 at room temperature; 15 μM SRC or JNK3 added; anti-Flag M2 affinity gel 1 h at room temperature; washes in 20 mM HEPES pH 7.5, 100 mM NaCl; Flag peptide elution; western blot; both purified

| Substance | binding [1] | binding (βARR1–Flag) |
| --- | --- | --- |
| βARR2 in CHO-K1 PathHunter cells (from UniProt P32121 1-409) | binds |  |
| JNK3 (from UniProt P53779 1-464) (enzyme) |  | binds |
